Experimental data reported in patent publication US10898561B2, “Peptides and combination of peptides for use in immunotherapy against pancreatic cancer and other cancers” (IMMATICS BIOTECHNOLOGIES GMBH, priority 2015, dated 2021).

Test system: source genes of the peptides in pancreatic cancer vs normal tissues
Assay: Expression profiling of source genes by Affymetrix microarrays
Set-up: species or system human; key: very highly overexpressed in tumors compared to a panel of normal tissues (+++); highly overexpressed in tumors compared to a panel of normal tissues (++); overexpressed in tumors compared to a panel of normal tissues (+)
Settings: expression score of source gene, tumors compared to a panel of normal tissues

Row | Substance | Gene Expression
1 | 6: peptide found in CLTA (gene looked up) (VLISLKQAPLV; listed as Homo sapiens) [compound 6] | +
2 | 48: peptide found in FLNA (gene looked up) (ALTQTGGPHV; listed as Homo sapiens) [compound 48] | +
3 | 25: peptide found in MYH9 (gene looked up) (SLKEEVGEEAI; listed as Homo sapiens) [compound 25] | ++
4 | 46: peptide found in EEF1A1 (gene looked up) (TFAPVNVTTEVKSV; listed as Homo sapiens) [compound 46] | ++
5 | 30: peptide found in SLC16A3 (gene looked up) (VVDEGPTGV; listed as Homo sapiens) [compound 30] | ++
6 | 58: peptide found in RGS4 (gene looked up) (GLAAFKAFL; listed as Homo sapiens) [compound 58] | +
7 | 62: peptide found in TUBA1B (gene looked up) (ALEKDYEEV; listed as Homo sapiens) [compound 62] | +++
8 | 51: peptide found in HSPD1 (gene looked up) (ALMLQGVDL; listed as Homo sapiens) [compound 51] | ++
9 | 16: peptide found in EEF1A1 (gene looked up) (APVNVTTEVKSV; listed as Homo sapiens) [compound 16] | +
10 | 61: peptide found in TUBA1B (gene looked up) (ALEKDYEEVGV; listed as Homo sapiens) [compound 61] | +++
11 | 52: peptide found in HYOU1 (gene looked up) (RMVEEIGVEL; listed as Homo sapiens) [compound 52] | +

Expression grades refer to the transcript from which the peptide derives; gene names, where given, were looked up from the sequence.
